Measured values as given in article PMC5701254.

Target: T1, endogenous LAMP2A (lysosome-associated membrane protein 2 A) (mouse (endogenous in SN4741)) (UniProt P17047)
T1 sequence: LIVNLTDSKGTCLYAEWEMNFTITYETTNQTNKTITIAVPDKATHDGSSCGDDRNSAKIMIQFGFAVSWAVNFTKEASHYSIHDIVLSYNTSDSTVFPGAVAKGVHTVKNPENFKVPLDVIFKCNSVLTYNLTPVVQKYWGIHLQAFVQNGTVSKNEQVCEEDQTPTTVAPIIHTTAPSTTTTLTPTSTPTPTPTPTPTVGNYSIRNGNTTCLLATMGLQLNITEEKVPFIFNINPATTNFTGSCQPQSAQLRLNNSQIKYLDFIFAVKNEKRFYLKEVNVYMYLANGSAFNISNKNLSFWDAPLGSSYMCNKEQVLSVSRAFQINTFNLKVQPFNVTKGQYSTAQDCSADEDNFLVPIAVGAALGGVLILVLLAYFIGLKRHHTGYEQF
Test: co-IP; immunoprecipitation of endogenous proteins from SN4741 cells, basal condition and after Tg treatment; which protein was precipitated is not told

binding: binds
Substance: endogenous p38 MAPK (mouse (endogenous in SN4741)) (enzyme)

These are yes or no findings as the source states them, for the method shown. Binding seen in cells or lysates may run through a third protein. Binding can be weak; no strength is given.
